From doi:10.1101/2020.06.04.134924
No constants are given. Whether binding was seen depends on the method and setting. Binding seen in cells or lysates may run through a third protein. Binding calls can cover weak binding; strength is not graded here. Tags and fused reporters may be left off the sequences shown.

Target: T1, Recombinant GST-hSLP4A (human) (UniProt Q96C24)
T1 sequence: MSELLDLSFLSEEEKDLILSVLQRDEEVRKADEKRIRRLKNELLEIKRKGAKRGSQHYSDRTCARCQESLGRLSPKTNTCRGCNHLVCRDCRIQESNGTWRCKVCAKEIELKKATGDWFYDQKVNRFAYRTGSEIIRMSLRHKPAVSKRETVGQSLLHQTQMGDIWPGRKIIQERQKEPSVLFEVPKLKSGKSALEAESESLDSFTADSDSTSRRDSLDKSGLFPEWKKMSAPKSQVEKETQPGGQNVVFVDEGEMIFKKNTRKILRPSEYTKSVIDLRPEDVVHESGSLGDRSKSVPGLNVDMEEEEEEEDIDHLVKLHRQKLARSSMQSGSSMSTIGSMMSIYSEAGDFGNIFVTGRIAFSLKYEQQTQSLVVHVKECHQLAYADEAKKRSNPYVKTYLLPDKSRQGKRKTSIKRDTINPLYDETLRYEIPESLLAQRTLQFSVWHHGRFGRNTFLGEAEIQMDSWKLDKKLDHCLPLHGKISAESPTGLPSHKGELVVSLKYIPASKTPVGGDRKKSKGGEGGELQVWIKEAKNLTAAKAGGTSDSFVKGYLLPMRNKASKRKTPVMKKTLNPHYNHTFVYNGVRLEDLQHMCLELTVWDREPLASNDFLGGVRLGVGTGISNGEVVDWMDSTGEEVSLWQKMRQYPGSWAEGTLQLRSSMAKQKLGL
Assay: pull-down

With endogenous GTP-bound RAB8 as the substance, how does the binding read?
Its binding is “binds”.
